# Experimental data taken from PubChem BioAssay AID1671190 (National Center for Advancing Translational Sciences (NCATS), 2021).
# By UniProt entry, the sequences of proteins in these tests, tags left out.
# UniProt P18054, whole entry, looked up: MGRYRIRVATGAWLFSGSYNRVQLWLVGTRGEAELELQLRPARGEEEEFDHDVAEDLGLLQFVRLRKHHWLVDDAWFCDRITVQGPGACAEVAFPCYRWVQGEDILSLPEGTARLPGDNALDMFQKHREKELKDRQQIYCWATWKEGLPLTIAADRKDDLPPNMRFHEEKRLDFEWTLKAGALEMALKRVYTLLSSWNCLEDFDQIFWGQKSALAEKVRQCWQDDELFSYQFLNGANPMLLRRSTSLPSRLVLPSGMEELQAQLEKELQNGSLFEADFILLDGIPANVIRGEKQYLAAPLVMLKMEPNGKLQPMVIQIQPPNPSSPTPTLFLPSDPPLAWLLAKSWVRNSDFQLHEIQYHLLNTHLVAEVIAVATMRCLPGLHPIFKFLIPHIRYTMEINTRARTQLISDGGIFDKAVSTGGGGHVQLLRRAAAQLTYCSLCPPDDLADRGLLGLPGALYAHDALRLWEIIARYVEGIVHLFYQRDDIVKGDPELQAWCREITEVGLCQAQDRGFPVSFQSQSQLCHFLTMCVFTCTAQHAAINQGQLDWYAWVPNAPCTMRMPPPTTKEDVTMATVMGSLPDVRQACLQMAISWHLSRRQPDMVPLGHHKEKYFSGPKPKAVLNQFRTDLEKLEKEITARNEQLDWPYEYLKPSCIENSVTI
# Out of some 580,000 compounds screened, about 6,100 (1.1%) were called active. This list was built around the results that the source calls inconclusive (neither active nor inactive); the mix of calls is not that of the screen. Calls follow the shape of the dose curve; as a rule, active = well fitted inhibition curve with a large enough effect; inconclusive = small, poorly fitted or top-dose-only effect, or another doubt; inactive = no such curve, though single readings can be large or run the other way. Potencies of inconclusive entries are doubtful fits and often do not repeat.
# Biological target: Polyunsaturated fatty acid lipoxygenase ALOX12 (Homo sapiens) (UniProt P18054)
# Assay: Primary qHTS assay for inhibitors of human arachidonate 12S-lipoxygenase (ALOX12): Round 2
# Conditions: purified 12hLO, xylenol orange hydroperoxide absorbance; activity change, negative = inhibition: at 108 µM (top of the series) unless noted
# Summary of the method: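 Purified human 12hLO (150 nM final) in 25 mM Hepes, 0.01% Triton X-100, pH 7.0 was preincubated 15 min at room temperature with compound. Then 40 uM arachidonic acid was added, 30 min. Hydroperoxide was read by Fe-XO absorbance ratio 573/405 nm.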
# % is scaled to controls: 0 for no effect and ±100 for the full control effect; potency is read from the fitted curve at half-maximal effect.
SMILES,Potency,"activity change, negative = inhibition"
CCc1ccc2nc3c(c(C(=O)O)c2c1)CCC3,"inconclusive: 50.1 µM [inhibitor, partial curve, poor fit]",–
COc1ccc(S(=O)(=O)N2CCC(C(=O)NC3CC3)CC2)cc1Cl,–,inactive: 20.9%
COc1ccc(CCNc2ncnc3c2oc2ccccc23)cc1OC,–,inactive: -27.2%
Cc1nc(NC(=O)C2CCN(c3ccc(C#N)cn3)CC2)sc1C,"inconclusive: 44.7 µM [inhibitor, partial curve, poor fit]",–
O=C(Nc1ccc(F)cc1F)c1ccc(S(=O)(=O)C2CCS(=O)(=O)C2)cc1 (stereo unspecified),"inconclusive: 56.2 µM [inhibitor, single point]",–
Cc1ccc(S(=O)(=O)Nc2ccc(Nc3nccn4c(-c5ccc6ccccc6c5)cnc34)cc2)cc1,"inconclusive: 28.2 µM [inhibitor, partial curve, poor fit]",–
CCOC(=O)C1CCN(CC(=O)Nc2c(C(=O)OC)[nH]c3ccccc23)CC1,"inconclusive: 8.91 µM [inhibitor, partial curve, poor fit]",–
N#CC1=C(N)Oc2cc(N)ccc2C1c1cccc(Br)c1 (stereo unspecified),"inconclusive: 20 µM [inhibitor, partial curve, poor fit]",–
O=C(C1CCCN(Cc2ccccc2Cl)C1)N1CCCCC1 (stereo unspecified),"inconclusive: 4.47 µM [inhibitor, full curve, poor fit]",–
Cc1ccc2cc(CCNS(=O)(=O)c3ccc(F)cc3)c(=O)[nH]c2c1C,"inconclusive: 100 µM [inhibitor, single point]",–
c1ccc2c(CN3CCSCC3)cccc2c1,"inconclusive: 0.631 µM [inhibitor, full curve, poor fit]",–
COc1ccc(NC2=NCC(=O)N2Cc2cccs2)cc1,"inconclusive: 39.8 µM [inhibitor, partial curve, poor fit]",–
Cc1cc(O)c(Sc2ncn[nH]2)cc1NS(=O)(=O)c1ccc(Cl)cc1,"inconclusive: 112 µM [inhibitor, single point]",–
Cc1cnc(NC(=O)CCNS(=O)(=O)c2c(C)c(C)cc(C)c2C)s1,"inconclusive: 44.7 µM [inhibitor, partial curve, poor fit]",–
CCn1nccc1C(=O)N1CCCC(n2cc(-c3nc(-c4ccccc4)no3)nn2)C1 (stereo unspecified),–,inactive: 1.81%
CC(CNCCCn1cnc2c(OCc3ccccc3)ncnc21)c1ccccc1 (stereo unspecified),"inconclusive: 44.7 µM [inhibitor, partial curve, poor fit]",–
Cc1cc(/C=C/C(=O)c2ccccc2F)cc(C)c1O,"inconclusive: 50.1 µM [inhibitor, partial curve, poor fit]",–
O=C(C[C@H]1C(=O)N(Cc2ccccc2)C[C@@H]1c1ccc(Br)cc1)Nc1ccc(Br)cc1,–,inactive: -25.7%
N#Cc1nc(-c2ccco2)oc1N1CCN(CC(=O)Nc2ccccc2Br)CC1,–,inactive: 16.4%
COc1cccc(OC)c1CN1CCC2(CC1)CC(O)CCO2 (stereo unspecified),–,inactive: 8.61%
Cc1ccc(C(=O)NCCc2c[nH]c3ccccc23)cc1,–,inactive: 2.97%
Cn1nnnc1C1CCCN(C(=O)Nc2ccccc2)C1 (stereo unspecified),–,inactive: 15.7%

# Among those listed so far, these contain two or more sulfur atoms.
SMILES,Potency,"activity change, negative = inhibition"
O=C(Nc1ccc(F)cc1F)c1ccc(S(=O)(=O)C2CCS(=O)(=O)C2)cc1 (stereo unspecified),"inconclusive: 56.2 µM [inhibitor, single point]",–
Cc1cc(O)c(Sc2ncn[nH]2)cc1NS(=O)(=O)c1ccc(Cl)cc1,"inconclusive: 112 µM [inhibitor, single point]",–
Cc1cnc(NC(=O)CCNS(=O)(=O)c2c(C)c(C)cc(C)c2C)s1,"inconclusive: 44.7 µM [inhibitor, partial curve, poor fit]",–

# Next structures

SMILES,Potency,"activity change, negative = inhibition"
COc1ccc(CC(=O)OCC(=O)Nc2ccc3[nH]c(=O)[nH]c3c2)cc1OC,"inconclusive: 79.4 µM [inhibitor, single point]",–
COc1ccc(CN2CC(COc3ccccc3)C3(C2)CN(c2ccccc2)C3)cc1O (stereo unspecified),"inconclusive: 89.1 µM [inhibitor, partial curve]",–
Cc1ccccc1NC(=O)Cn1ccn2nc3c(c2c1=O)CCCCC3,"inconclusive: 8.91 µM [inhibitor, full curve, poor fit]",–
CC(=O)C1=C(O)C(=O)N(c2cc(C(C)(C)C)on2)C1c1ccc(Br)cc1 (stereo unspecified),active: 44.7 µM,–
COCCNC(=O)c1cc2sccc2n1C,–,inactive: -5.99%
COc1ccc(S(=O)(=O)NNC(=O)c2cccs2)cc1,"inconclusive: 17.8 µM [inhibitor, partial curve, poor fit]",–
Clc1nccc(N2CCN(c3ccccc3Cl)CC2)n1,"inconclusive: 112 µM [inhibitor, single point]",–
C=CCn1c(=S)[nH]c2sc3c(c2c1=O)CCC3,"inconclusive: 39.8 µM [inhibitor, partial curve]",–
COC(=O)/C(=C\Nc1ccc(OC)cc1)NC(=O)c1ccc(Cl)cc1Cl,"inconclusive: 44.7 µM [inhibitor, partial curve, poor fit]",–
CC1=CC(=O)C=C/C1=C(/c1ccc(O)cc1C)c1ccccc1S(=O)(=O)O,"inconclusive: 50.1 µM [inhibitor, partial curve, poor fit]",–
COc1ccccc1NS(=O)(=O)c1cccc(C(=O)NCc2ccncc2)c1,"inconclusive: 0.708 µM [inhibitor, full curve, poor fit]",–
CNC(=O)CCC1CCN(C(=O)c2ccccc2)CC1,–,inactive: 19.2%
CN(CC(=O)Nc1c(Cl)cccc1Cl)C(=O)CCc1nc2sc3c(c2c(=O)[nH]1)CCCC3,"inconclusive: 70.8 µM [inhibitor, partial curve, poor fit]",–
Cc1cc(C(=O)CN2C(=O)NC(c3ccccc3)(c3ccccc3)C2=O)c(C)n1Cc1ccccc1,–,inactive: -0.77%
CCn1nc(C)c2ccn(CC(=O)NCc3ccccc3C(F)(F)F)c(=O)c21,–,inactive: 0.482%
Cc1cccc(NC(=O)c2c(N)sc3c2CCC(C)C3)c1 (stereo unspecified),"inconclusive: 39.8 µM [inhibitor, partial curve]",–
CC1=C(C(=O)N(C(C)C)C(C)C)CC(CC(=O)NCc2cccc3ccccc23)C(=O)N1Cc1ccc(F)cc1 (stereo unspecified),–,inactive: -12.3%
CC(C)NC(=O)c1c(CSc2ccccc2)noc1C(=O)NCc1ccccc1,"inconclusive: 44.7 µM [inhibitor, partial curve, poor fit]",–
O=C(Cc1c(Cl)cccc1Cl)Oc1ccc(OCc2ccccc2)cc1,–,inactive: -39.3%
Cc1cc(O)c(C(=O)/C=C/c2cccc([N+](=O)[O-])c2)c(=O)o1,"inconclusive: 39.8 µM [inhibitor, single point]",–
O=C(NCC1CCNCC1)c1ccncc1,"inconclusive: 31.6 µM [inhibitor, partial curve, poor fit]",–
O=C(O)CCc1ccc(-c2ccc(Br)cc2)n1Cc1ccco1,"inconclusive: 8.91 µM [inhibitor, full curve, poor fit]",–

SMILES,Potency,"activity change, negative = inhibition"
O=C(Nc1ccc(S(=O)(=O)N2CCCCCC2)cc1)c1csnn1,"inconclusive: 25.1 µM [inhibitor, full curve, poor fit]",–
Cc1ccccc1Nc1c(-c2ccc(N3CCOCC3)cc2)nc2ccc(Cl)cn12,"inconclusive: 141 µM [inhibitor, partial curve, poor fit]",–
O=C(Nc1ccc2nn(-c3ccc(Cl)cc3)nc2c1)c1cc2ccccc2o1,"inconclusive: 5.01 µM [inhibitor, partial curve, poor fit]",–
CS(=O)(=O)NC(=O)c1ccc(Br)cc1F,"inconclusive: 7.08 µM [inhibitor, full curve, poor fit]",–
COC(=O)C1=C(C)OC(N)=C(C#N)C1c1ccc2c(c1)OCO2 (stereo unspecified),"inconclusive: 39.8 µM [inhibitor, single point]",–
CN(C)c1ccc(NC(=O)C(=O)C2C(=O)Nc3ccccc32)cc1 (stereo unspecified),–,inactive: 18.3%
CCCn1c(/C=C/c2cc[n+](C)cc2)nc2ccccc21,"inconclusive: 15.8 µM [inhibitor, full curve, poor fit]",–
COc1ccc(CN2CCc3nc(C(=O)Nc4ccc(Cl)cc4)oc3CC2)cn1,"inconclusive: 5.62 µM [inhibitor, full curve, poor fit]",–
N#Cc1nc(/C=C/c2ccc(F)cc2)oc1NC1CCCCC1,"inconclusive: 126 µM [inhibitor, single point]",–
Cc1cc2c(Nc3ccccc3O)ncnc2s1,"inconclusive: 89.1 µM [inhibitor, partial curve, poor fit]",–
C[N+]1=C(/C=C/Nc2ccccc2Cl)C(C)(C)c2ccccc21,"inconclusive: 7.94 µM [inhibitor, full curve, poor fit]",–
CCCCCCN1C[C@@H](O)[C@H](n2cc(C3CC3)nn2)C[C@@H]1c1ccccc1,"inconclusive: 100 µM [inhibitor, single point]",–
CN(C)CCCN(Cc1cc2cc3c(cc2[nH]c1=O)OCO3)C(=S)Nc1ccccc1,–,inactive: -0.04%
O=C1C(Cl)=C(N2CCCC2)C(=O)N1c1ccccc1F,"inconclusive: 44.7 µM [inhibitor, partial curve]",–
COc1ccccc1NC(=O)CSc1nnnn1-c1ccccc1F,"inconclusive: 39.8 µM [inhibitor, partial curve, poor fit]",–
CCOC(=O)c1c(C)[nH]c(C)c1C(=O)COC(=O)Cc1n[nH]c(=O)c2ccccc12,"inconclusive: 100 µM [inhibitor, single point]",–
O=C(O)CCSc1ccc2ccccc2n1,"inconclusive: 50.1 µM [inhibitor, partial curve, poor fit]",–
Cc1cc(C(=O)Nc2c(C)nn(Cc3c(Cl)cccc3Cl)c2C)no1,–,inactive: -2.5%
O=C(O)Cn1c(SCCOc2ccc(Cl)cc2)nc2ccccc21,"inconclusive: 35.5 µM [inhibitor, partial curve, poor fit]",–
O=C(Nc1ccc(F)cc1)C(CCc1ccccc1)N1CCN(c2cccc(C(F)(F)F)n2)CC1 (stereo unspecified),–,inactive: -13.7%
O=C(CN(C(=O)c1ccccc1Cl)C1CCCCC1)Nc1ccc(Cl)c([N+](=O)[O-])c1,–,inactive: -7.78%
